# The list shows a part of the results. Further columns of the screen follow, without active or inactive calls. Compounds called inactive in the main read-out are mostly missing here. Potencies come from curve fits of mixed quality, noted in brackets.
# Assay: qHTS Assay for Lipid Storage Modulators in Drosophila S3 Cells;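 as to cell number change: cells counted by Cell Tracker Red CMTPX staining in the red channel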
# Conditions: BODIPY lipid droplet fluorescence, 18-24 h; for cell number change: measured here: cell count max response, cells fed with added oleic acid
# Summary of the method: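 Drosophila S3 cells loaded with oleic acid (400 uM, as added) and compounds at several concentrations; lipid droplets imaged by 488-nm laser-scanning cytometry, 500–530 nm intensity and object ratio to cell channel. Percent activity normalized to 20 uM Triacsin C.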
# [1] = measured here: lipid fluorescence (Fed channel) AC50, cells fed with added oleic acid
# [2] = measured here: cell number channel AC50, cells fed with added oleic acid
Compound,cell number change,AC50 [1],AC50 [2]
O=S(=O)(c1ccc2c(c1)CCCC2)N1CCNCC1,16.8%,"0.731 µM [falling, single point]",–
Cc1ccc(C)n1-c1nn(S(=O)(=O)c2cccc3cccnc23)c2cccc(F)c12,–,"29.1 µM [rising, single point]",–
CCCCc1nnc(NC(=O)CSc2nc(O)c(Cc3ccccc3)c(=O)[nH]2)s1,–,"1.3 µM [rising, full curve, poor fit]",–
O=C(CN1c2cccc3cccc(c23)S1(=O)=O)Nc1ccccc1F,0.451%,"4.11 µM [rising, full curve]",–
COc1ccc(-c2csc3nc(C)n(-n4cccc4)c(=O)c23)cc1OC,-1.92%,"29.1 µM [falling, single point]",–
O=S(=O)(c1ccccc1)c1cc(O)ccc1O,18.5%,"29.1 µM [rising, single point]",–
CC(C)(C)CNC(CO)C12CC3CC(CC(C3)C1)C2 (centres undefined),-6%,"29.1 µM [falling, single point]",–
O=C(O)c1ccc(N2CCCCCC2)c(N2C(=O)c3ccccc3C2=O)c1,-19.8%,"20.6 µM [falling, single point]",–
CN(c1ccc(F)cc1)S(=O)(=O)c1ccc(Cl)c(C(=O)Nc2ccc3c(c2)CCC3)c1,-16.3%,"13 µM [falling, partial curve, poor fit]",–
CCN(c1ccc(C)cc1)S(=O)(=O)c1nnc(NC(=O)c2ccco2)s1,-15%,–,–
COc1ccc(CNC(=O)c2c(C)oc3c2C(=O)c2ccccc2C3=O)cc1,12.7%,"2.31 µM [rising, partial curve, poor fit]",–
COc1ccc(NS(=O)(=O)c2cc(Br)cc3c2N(C(C)=O)CC3)cc1,-12.4%,"9.2 µM [falling, single point]",–
CCC1Oc2ccc(C)cc2N(CC(=O)NCc2ccco2)C1=O (centres undefined),-12%,"0.651 µM [falling, full curve, poor fit]",–
CC(C)(Oc1ccc(Cl)cc1)C(=O)O/N=C(\N)c1ccncc1,-4.17%,–,–
CCN(CC(=O)Nc1ccc(OC)cc1)C(=O)CSCc1c(C)noc1C,-6.28%,–,–
COC(=O)c1ccc(N)c(CS(=O)(=O)c2ccc(Cl)cc2)c1,-8.33%,–,–
O=C1c2cccnc2C(Nc2ccccc2Br)N1Cc1ccco1 (centres undefined),15%,"6.51 µM [rising, single point]",–
CC(=O)N1c2ccc(S(=O)(=O)NCCC(=O)NCc3ccc(Cl)cc3)cc2CC1C (centres undefined),-8.07%,–,–
CN(c1ncc(C(F)(F)F)cc1Cl)n1cc(C(=O)O)c2ccccc2c1=O,28.7%,–,–
c1ccc(-n2cnnc2SCc2cn3ccsc3n2)cc1,1.91%,"2.31 µM [rising, full curve]",–
O=C(CCCN1C(=O)/C(=C/c2ccccc2Cl)SC1=S)NNC(=O)c1ccccc1Cl,-0.751%,"8.2 µM [falling, partial curve, poor fit]",–
CN(C1CCCC1)C1CCN(C(=O)CNC(=O)/C=C/c2ccccc2)CC1,-2.57%,–,"0.651 µM [rising, single point]"

Compound,cell number change,AC50 [1],AC50 [2]
Cc1ccc(C)c(C(=O)Nc2ccncc2)c1,8.03%,–,–
COc1ccc(Cl)cc1NC(=O)CN(C)C(=O)CNC(=O)C12CC3CC(CC(C3)C1)C2,15.5%,–,–
C=CCn1c(SCC(=O)Nc2ccc(S(N)(=O)=O)cc2)nnc1-c1cnccn1,35.4%,–,"23.1 µM [rising, single point]"
CC(=O)Nc1ccc(NC(=O)C(C)OC(=O)/C=C/c2cccs2)cc1 (centres undefined),8.17%,"0.116 µM [falling, full curve, poor fit]",–
Cc1cccc(C(=O)N2CCN(c3ccc([N+](=O)[O-])c(N4CCOCC4)c3)CC2)c1,-17.5%,"29.1 µM [falling, single point]",–
COc1ccc(-c2nc3cc(NC(=O)Cc4ccc(OC)c(OC)c4)ccc3o2)cc1,-122%,–,"1.84 µM [rising, partial curve]"
CC(=O)Nc1ccc(OC(=O)c2cccs2)cc1,-16.1%,–,–
CCC(=O)Nc1nnc(SCC(=O)Nc2ccc3c(c2)OCO3)s1,-4.18%,–,–
CCC(c1nnnn1C(C)(C)C)N1CCN(Cc2ccccc2OC)CC1 (centres undefined),-21.8%,"29.1 µM [falling, single point]",–
COCCNc1nnc(SCC(=O)NC2CCCCC2)s1,-22.7%,"6.51 µM [falling, partial curve, poor fit]",–
COc1ccc(/C=C/C(=O)c2ccccc2)cc1Cn1nnc2ccccc21,-17%,"29.1 µM [falling, single point]",–
CS(=O)(=O)n1nc(OC(=O)c2cc(Br)ccc2Cl)cc1N,-10.7%,"3.26 µM [rising, single point]",–
O/N=C(\c1ccccn1)C1CC1c1ccccc1 (centres undefined),47.8%,"7.31 µM [rising, partial curve, poor fit]","0.103 µM [rising, full curve, poor fit]"
Cc1ccc(CNC(=O)C(=O)NCCC2CCCCN2S(=O)(=O)c2ccc(C)cc2)cc1 (centres undefined),-49%,–,"29.1 µM [falling, single point]"
N#Cc1c(-c2ccccc2)nc2n1CCS2,12.1%,–,"0.00461 µM [rising, full curve, poor fit]"
CC1CCN(S(=O)(=O)c2ccc(C(=O)Nc3sccc3C(N)=O)cc2)CC1,-19.4%,"29.1 µM [falling, single point]",–
COc1ccc2c(Cl)c(C(=O)NN)sc2c1,-22.9%,"0.82 µM [falling, full curve, poor fit]",–
CCOC(=O)c1c(NC(=O)/C=C/c2ccc3c(c2)OCO3)sc(C)c1CC,52.6%,"5.8 µM [rising, full curve]","32.6 µM [rising, partial curve, poor fit]"
Cn1c(=O)c2c(nc(NCc3ccco3)n2C)n(C)c1=O,4.53%,–,–
CC(C)NC(=O)CN(C(=O)CCC(=O)Nc1nccs1)c1ccc(C(C)C)cc1,0.525%,–,–
CCC(=O)Nc1ccc(S(=O)(=O)Nc2cccnc2)cc1,-1.76%,"4.11 µM [falling, partial curve]",–

# 2 entries drawn at random from the list so far:
Compound,cell number change,AC50 [1],AC50 [2]
CCC(=O)Nc1nnc(SCC(=O)Nc2ccc3c(c2)OCO3)s1,-4.18%,–,–
CN(c1ccc(F)cc1)S(=O)(=O)c1ccc(Cl)c(C(=O)Nc2ccc3c(c2)CCC3)c1,-16.3%,"13 µM [falling, partial curve, poor fit]",–

# From PubChem BioAssay AID2685 (National Center for Advancing Translational Sciences (NCATS), 2010)
